The text below walks through data of PubChem BioAssay AID2685 (National Center for Advancing Translational Sciences (NCATS), 2010).

Molecules are shown by their SMILES. The list shows a part of the results. The main result of the screen is listed elsewhere. These columns were measured beside it and carry no call. Compounds called inactive in the main read-out are mostly missing here. Words in brackets tell the shape of the fitted curve; partial curves, single points and poor fits give uncertain potencies.

The test can be described thus: qHTS Assay for Lipid Storage Modulators in Drosophila S3 Cells.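 On cell number change: cells counted by Cell Tracker Red CMTPX staining in the red channel.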 The settings on record: BODIPY lipid droplet fluorescence, 18-24 h; for cell number change: measured here: cell count max response, cells fed with added oleic acid. A digest of the protocol:
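Laser-scanning cytometry quantifies lipid droplet accumulation (500–530 nm total intensity; droplet/cell object ratio) in oleic acid-fed (400 uM added) Drosophila S3 cells treated with a concentration series. 20 uM Triacsin C defined 100% inhibition.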
A general note: In qHTS, concentration-response curves come from the screen itself.

[1] abbreviates: measured here: cell number channel AC50, cells fed with added oleic acid.
The mark [2] stands for this setting: measured here: lipid fluorescence (Fed channel) AC50, cells fed with added oleic acid.

As for `COc1cc(OC)cc(C(=O)N2CCN(C(=O)c3cccs3)CC2)c1`, the cell number change was -24.4%. Also, the AC50 under setting [1] is 0.731 µM [falling, full curve, poor fit]. For the same molecule, under setting [2], the AC50 was 0.82 µM [falling, partial curve, poor fit]. Consider `O=c1cc(CN2CC(O)Cc3ccc4ccccc4c32)nc2sccn12` (stereo unspecified), for which, under setting [2], the AC50 was 0.116 µM [rising, full curve, poor fit]. With `Cc1nc2c(C)cccn2c1C(=O)c1ccccc1`, the cell number change is -5.97%. Under setting [2], the AC50 was 0.058 µM [falling, full curve, poor fit].

With `CC(C)Oc1ccc(CNCCC2(C(C)C)CCOC(C)(C)C2)cc1` (stereo unspecified), the cell number change is -16.8%. For the same molecule, the half-maximal activity concentration (AC50) under setting [2] was 20.6 µM [rising, single point]. Regarding `CCC1(CC)NC(=O)N(CC(=O)OC(C)C(=O)Nc2ccccc2OC)C1=O` (stereo unspecified), the cell number change is -23.3%. Consider `COc1ccc(C2CC(c3ccc(Br)cc3)=NN2C(=O)CSC2=NN3CCCC(=O)N=C3S2)cc1` (stereo unspecified), for which the cell number change came to 5.65%. As for `C=CCn1c(=N)n(CC(=O)O)c2ccccc21`, the AC50 is, setting by setting: under setting [1], 2.06 µM [falling, partial curve, poor fit]; under setting [2], 23.1 µM [falling, partial curve]. For `CC1(C)CC(NC(=O)COc2ccc(Cl)cc2Cl)CC(C)(C)N1`, the cell number change was -4.76%. Further, under setting [2], the half-maximal activity concentration (AC50) was 6.51 µM [falling, single point]. As for `CC(=O)N1c2ccc(S(=O)(=O)N3CCCCC3)cc2CC1C(=O)Nc1ccc(F)cc1C` (stereo unspecified), the cell number change is -23.8%. The AC50 under setting [1] is 4.11 µM [falling, full curve, poor fit]. For the same molecule, the AC50 under setting [2] was 18.4 µM [rising, partial curve]. For the molecule `CCOC(=O)/C(=C\C=C\N1CCOCC1)C(C)=O`, the cell number change was 31.6%. Under setting [1], the AC50 is 29.1 µM [rising, single point]. For the same molecule, under setting [2], the concentration at half-maximal activity (AC50) was 29.1 µM [rising, single point]. On to `COc1ccccc1C(=O)NC(CCSC)C(=O)N1CCN(C/C=C/c2ccccc2)CC1` (stereo unspecified), for which the cell number change came to 28.8%. The AC50 under setting [1] is 1.64 µM [rising, full curve, poor fit]. The AC50 under setting [2] is 20.6 µM [rising, partial curve, poor fit]. With `Cc1ccc(NC(=O)Cn2c(O)c(N=NC(=O)c3cc([N+](=O)[O-])ccc3O)c3ccccc32)cc1`, the cell number change is -14.4%.

`CC(C)CC1Nc2ccc(C(=O)NCc3ccc4c(c3)OCO4)cc2NC1=O` (stereo unspecified): the cell number change was 26.9%. As for `COc1ccc2c(c1)C(NC(C)=O)C(=O)N2C` (stereo unspecified), the cell number change is -16.4%. The AC50 under setting [1] is 0.517 µM [falling, full curve]. In addition, the AC50 under setting [2] is 0.259 µM [falling, full curve, poor fit]. `COc1cccc(NC(=O)CN(C)C(=O)c2ccc3ccccc3c2)c1`: the cell number change is 20.5%. In addition, the AC50 under setting [2] is 29.1 µM [rising, single point].

Regarding `Cc1ccc(NC(=O)CCC(=O)NNC(=O)c2cccs2)cc1C`, the cell number change amounted to 20.7%. Also, under setting [2], the AC50 was 29.1 µM [rising, single point]. Regarding `COCCCNc1nc(N)c([N+](=O)[O-])c(Nc2ccccc2OC)n1`, the cell number change was -4.8%. Regarding `Cc1cc(C)cc(NC(=O)N2CCCN(c3c(Cl)cncc3Cl)CC2)c1`, the cell number change is -41.9%. Moreover, the AC50 under setting [1] is 29.1 µM [falling, single point]. Under setting [2], the AC50 is 20.6 µM [falling, single point].

In the case of `O=C(COC(=O)CCc1ccccc1)NC1CCS(=O)(=O)C1` (stereo unspecified), the cell number change was -25%. For the same molecule, the AC50 under setting [1] was 0.82 µM [falling, full curve, poor fit].

In the case of `CCOC(=O)N/N=C\c1ccc(OC/C=C/c2ccccc2)c(OC)c1`, the cell number change is -32.8%. Moreover, the AC50 under setting [1] is 29.1 µM [falling, single point]. With `COC(=O)c1ccc(NC(=O)C2CCCN2S(=O)(=O)c2ccc(C)cc2)cc1` (stereo unspecified), the cell number change was -6.4%. Besides, the AC50 under setting [2] was 29.1 µM [falling, single point]. Take `COC(=O)c1cc(Cl)c(NC(=O)c2cc(OC)c(OC)c(OC)c2)cc1OC`: the AC50 under setting [1] is 2.91 µM [rising, partial curve]. For `Cc1cccc([N+](=O)[O-])c1NC(=O)COC(=O)c1nc2nccc(C)n2n1`, the cell number change turned out to be 15.2%. Moreover, the AC50 under setting [2] was 0.092 µM [rising, full curve, poor fit]. For the molecule `CCOC(=O)c1nn(C23CC4CC(CC(C4)C2)C3)c2c1C(=O)N(c1ccc(C)cc1)C2=O`, the cell number change is -33.9%. For the same molecule, the AC50 under setting [1] was 20.6 µM [falling, single point]. Moreover, the AC50 under setting [2] was 6.51 µM [rising, single point].

For `COc1ccc(-c2cc(C(=O)N3CCN(c4ccc(F)cc4)CC3)no2)cc1OC`, the cell number change amounted to 1.8%. Under setting [2], the AC50 was 11.6 µM [rising, single point]. On to `CCOP(=O)(OCC)/C(C#N)=C/c1ccc([N+](=O)[O-])cc1`, for which the cell number change came out at 2.78%.

As for `O=S(=O)(c1ccccc1F)N1CCC(c2nc3ccccc3[nH]2)CC1`, the cell number change was found to be 10.7%. Also, the AC50 under setting [2] is 7.31 µM [falling, partial curve]. For the molecule `O=C(O)c1ccc(-c2nc3ccccc3[nH]2)cc1`, the cell number change worked out at 107%. In addition, the AC50 under setting [1] is 5.17 µM [rising, full curve]. For the same molecule, the AC50 under setting [2] was 11.6 µM [rising, partial curve]. With `CCOC(=O)c1c(NC(=O)c2ccc(S(=O)(=O)N(C)CC3CCCO3)cc2)sc2c1CC(C)(C)NC2(C)C` (stereo unspecified), the cell number change was determined as 4.09%. Regarding `CN(C(=O)c1cccc(C#N)c1)c1nnc(-c2cnccn2)s1`, the cell number change is 31%. Also, the AC50 under setting [1] is 6.51 µM [rising, partial curve].

As to `COc1ccc(CCNC(=O)CC(c2ccccc2)c2cccc(C)c2O)cc1OC` (stereo unspecified), the cell number change was -63.4%. Further, under setting [1], the AC50 was 20.6 µM [falling, single point]. The concentration at half-maximal activity (AC50) under setting [2] was 23.1 µM [falling, partial curve]. `Cc1sc2ccc3sccc3c2[n+]1C`: the cell number change is -24.7%. Further, the AC50 under setting [2] is 4.11 µM [falling, full curve]. Consider `O=C(NC12CC3CC(CC(C3)C1)C2)N1CC2Cc3cccc(=O)n3C(C2)C1` (stereo unspecified), for which the AC50 under setting [1] was 6.51 µM [rising, single point]. `CCc1ccccc1OCC(=O)Nc1cc(S(=O)(=O)N2CCOCC2)ccc1N1CCCCC1`: the cell number change is -19.2%. The AC50 under setting [2] was 0.366 µM [falling, full curve]. For the molecule `CN(CC(=O)Nc1cccc(F)c1)C(=O)c1ccccc1Cc1ccccc1`, the cell number change is 24.1%. The AC50 under setting [2] was 6.51 µM [rising, single point].

Consider `O=C(NCc1ccccc1)C(c1ccco1)N(C(=O)c1csnn1)c1ccccc1` (stereo unspecified), for which the cell number change was -27.6%. In addition, the AC50 under setting [2] is 6.51 µM [rising, single point].

Consider `COc1ccc(C(=O)N/N=C(\CCC(=O)O)c2ccc(C(C)(C)C)cc2)cc1OC`, for which the cell number change was -18%. Further, the AC50 under setting [1] was 0.58 µM [rising, partial curve]. Take `CCN(CC(=O)Nc1c(F)cccc1F)C(=O)c1ccc(NC(=O)CC2SC(N3CCCC3)=NC2=O)cc1` (stereo unspecified): the cell number change is -19.5%. Regarding `COc1ccc(NC(=O)Nc2nnc(Cc3ccc(OC)c(OC)c3)s2)cc1`, the cell number change was -17.9%.

`Cc1ccc(C(=O)Nc2c(N)nc(SCC(=O)NCC3CCCO3)[nH]c2=O)cc1` (stereo unspecified): the cell number change worked out at 5.82%. For the same molecule, under setting [2], the AC50 is 5.17 µM [rising, single point]. As to `CCCn1nc(C(=O)Nc2ccc(N3CCOCC3)cc2)c2ccccc2c1=O`, the cell number change was -38.7%. In addition, under setting [1], the AC50 is 29.1 µM [falling, single point]. For the same molecule, the AC50 under setting [2] is 6.51 µM [rising, full curve]. In the case of `Cc1ccc(SCCC(=O)OCC(=O)Nc2ccc(C(N)=O)cc2)cc1`, the cell number change was found to be 10%. Moreover, the AC50 under setting [2] is 0.00461 µM [falling, full curve, poor fit]. For the molecule `COC(=O)N/N=C(\C)c1ccccc1OC(F)F`, the cell number change was -12.4%. Also, the half-maximal activity concentration (AC50) under setting [1] was 1.03 µM [falling, full curve, poor fit]. Moreover, the concentration at half-maximal activity (AC50) under setting [2] is 2.06 µM [falling, partial curve]. For the molecule `CC(C)OC(=O)Nc1ccc2c(c1)N(C(=O)N1CCN(C)CC1)c1ccccc1CC2`, the cell number change came out at 19.3%. For `CC(=O)N1c2c(cc(Br)cc2S(=O)(=O)N2CCN(c3ccccc3F)CC2)CC1C` (stereo unspecified), the cell number change was 32.9%. Further, the AC50 under setting [2] is 6.51 µM [rising, single point].

For the molecule `CCCN(C1CCS(=O)(=O)C1)S(=O)(=O)c1ccc2ccccc2c1` (stereo unspecified), the cell number change is -11.8%. Under setting [2], the AC50 was 2.06 µM [falling, single point]. `CCOC(=O)c1cnc2c(-c3ccc(Cl)cc3)cnn2c1C`: the cell number change was -17.8%. Further, under setting [2], the AC50 is 32.6 µM [falling, single point]. Take `CCOC(=O)C1(C(F)(F)F)N=C(N(C)C)OC(N(C)C)=N1`: the cell number change is 6.19%. Moreover, the AC50 under setting [2] was 29.1 µM [falling, single point]. For the molecule `CCCCS(=O)(=O)Nc1ccc(N2CCOCC2)c(S(=O)(=O)N2CCOCC2)c1`, the cell number change came to 22.2%. Moreover, the half-maximal activity concentration (AC50) under setting [2] was 4.11 µM [falling, single point].

For the molecule `COCc1cc(C)n(CC(=O)OC)c(=O)c1C#N`, the cell number change came to 16.9%. For the molecule `O=C(Nc1nnc(S(=O)(=O)N2CCCC2)s1)c1ccccc1F`, the cell number change stood at 3.89%. Besides, the AC50 under setting [2] is 29.1 µM [falling, single point]. Turning to `O=c1[nH]c(CSc2ncc(-c3ccc(F)cc3)n2Cc2ccco2)nc2ccccc12`, the cell number change was -20.2%. Turning to `O=c1cc(CO)occ1OCc1cccc(F)c1`, the cell number change was -29.4%. In addition, the AC50 under setting [2] is 29.1 µM [falling, single point]. Turning to `CCOc1ccc(C(C)=O)cc1COC(=O)c1ccccc1C(=O)N(C)Cc1ccccc1`, the cell number change is 83.5%. The AC50 under setting [1] is 2.91 µM [rising, full curve].

In the case of `COc1ccc(OCCC(=O)N2CCCCC2)cc1`, the cell number change was found to be 11.1%. For the same molecule, the AC50 under setting [2] is 29.1 µM [rising, single point]. In the case of `O=C(Cn1c(-c2cncs2)nc2ccccc21)NCc1ccccc1`, the cell number change turned out to be 91.2%. Also, the AC50 under setting [1] was 23.1 µM [rising, single point]. Further, the AC50 under setting [2] was 0.461 µM [falling, single point]. Regarding `CCOc1ccc(-c2nnc(-c3ccco3)o2)cc1OCC`, the cell number change turned out to be 0.974%. `O=C(CN(Cc1ccccc1)S(=O)(=O)c1ccc(F)cc1)NCc1ccccn1`: the cell number change was -16.7%. In addition, the AC50 under setting [2] was 5.17 µM [rising, single point]. With `Cn1c(=O)c2c(ncn2CC(N)=O)n(C)c1=O`, the cell number change is -51.4%. The half-maximal activity concentration (AC50) under setting [1] was 0.259 µM [falling, full curve, poor fit].

With `O=C(Nc1cccc2ncccc12)C12CC3CC(CC(C3)C1)C2`, the cell number change worked out at 0.694%. Besides, the AC50 under setting [2] was 0.259 µM [rising, partial curve, poor fit].

The term AC50 denotes the midpoint of the concentration-response curve, whichever way the signal moves. A lower AC50 goes with activity at low concentration.
